{"source": "PubChem BioAssay AID1347075", "about": "(National Center for Advancing Translational Sciences (NCATS), 2019)", "note": "About 5,500 (1.4%) of roughly 400,000 compounds were called active. The shares of active, inactive and inconclusive entries below differ from those in the screen. The call rests on the fitted dose curve; in most records, active means well fitted cell-killing curve with a large enough effect; inconclusive means small, poorly fitted or top-dose-only effect, or effect the other way; inactive means flat fitted curve, though single readings scatter. A potency beside an inconclusive call is a rough fit, not a confirmed value. On the % scale 0 is the no-effect control and ±100 the full control effect; potency means the concentration at half of the fitted maximal effect."}
{"test": "qHTS assay for MDR1-selective chemotherapeutics: Primary screen using the parental adenocarcinoma cell KB-3-1; further: nearly all actives have a fitted effect of over 60% in size", "conditions": "KB-3-1 viability, CellTiter-Glo ATP luminescence, 72 h; activity change, negative = cytotoxic: at 46.1 µM (top of the series)", "in_short": "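Cytotoxicity in the drug-sensitive parental line KB-3-1 was scored as loss of CellTiter-Glo luminescence following 72 h incubation with compound. Values come from curve fitting of normalized concentration-response data.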"}
{"smiles": "COc1ccc(NS(=O)(=O)c2ccccc2C(=O)O)cc1", "Potency": "inconclusive: 23.1 µM [rising, partial curve]"}
{"smiles": "COc1ccc(CC(=O)O/N=C(\\N)c2ccccn2)cc1", "Potency": "inconclusive: 18.4 µM [rising, single point]"}
{"smiles": "CCc1cccc(C)c1Nc1c(-c2ccc(N(C)C)cc2)nc2cnccn12", "Potency": "inconclusive: 18.4 µM [cytotoxic, single point]"}
{"smiles": "Cn1c(C(=O)N2CCN(Cc3ccccc3)CC2)cc2c(=O)n(C)c3ccccc3c21", "Potency": "inconclusive: 29.1 µM [cytotoxic, single point]"}
{"smiles": "COc1ccccc1CCN=C(N)NS(=O)(=O)c1cccs1", "Potency": "inconclusive: 0.651 µM [rising, full curve]"}
{"smiles": "Oc1ccc(-c2nc3c4c(ncn3n2)-c2ccccc2CC42CCCC2)cc1", "activity change, negative = cytotoxic": "inactive: 3.4%"}
{"smiles": "O=C(N/N=C/c1ccccn1)c1ccc(NC(=O)c2ccccc2Cl)cc1", "Potency": "inconclusive: 29.1 µM [rising, single point]"}
{"smiles": "COC(=O)C(CCC(=O)CN1C(=O)c2ccccc2C1=O)N1C(=O)c2ccccc2C1=O", "note": "(stereo unspecified)", "activity change, negative = cytotoxic": "inactive: -3.91%"}
{"smiles": "Clc1ccc(-c2csc3ncnc(Sc4nnnn4-c4ccccc4)c23)cc1", "Potency": "inconclusive: 29.1 µM [cytotoxic, single point]"}
{"smiles": "CCc1nc2ccc(C(=O)Nc3cccc(C(C)=O)c3)cc2nc1CC", "Potency": "inconclusive: 29.1 µM [rising, single point]"}
{"smiles": "COc1ccccc1C1CN=NC12CCCc1ccccc1C2=O", "note": "(stereo unspecified)", "activity change, negative = cytotoxic": "inactive: -0.76%"}
{"smiles": "COC(=O)N/N=C/c1cn(Cc2ccc(Cl)cc2Cl)c2ccccc12", "Potency": "inconclusive: 29.1 µM [cytotoxic, single point]"}
{"smiles": "CC(Sc1ncnc2sccc12)C(=O)Nc1ccc(S(=O)(=O)N2CCOCC2)cc1", "note": "(stereo unspecified)", "activity change, negative = cytotoxic": "inactive: 3.17%"}
{"smiles": "COc1cccc(NC(=O)CN2C(=O)NC3(CCc4ccccc43)C2=O)c1", "note": "(stereo unspecified)", "activity change, negative = cytotoxic": "inactive: 1.39%"}
{"smiles": "COCCCn1c(SCC(=O)c2ccccc2)nc2ccccc2c1=O", "activity change, negative = cytotoxic": "inactive: 0.108%"}
{"smiles": "NNc1ccc(Cc2ccc(Cl)cc2Cl)nn1", "Potency": "inconclusive: 29.1 µM [cytotoxic, single point]"}
{"smiles": "COc1cc(/C=N/NC(=S)NCCN2CCOCC2)ccc1O", "activity change, negative = cytotoxic": "inactive: -2.89%"}
{"smiles": "CN(CC(=O)Nc1cccc(F)c1)C(=O)CCCn1c(=O)oc2ccccc21", "activity change, negative = cytotoxic": "inactive: 6.64%"}
{"smiles": "Cc1ccc2ncc(C(=O)c3ccc(C)c(C)c3)c(S(=O)(=O)c3ccccc3)c2c1", "Potency": "inconclusive: 29.1 µM [cytotoxic, single point]"}
{"smiles": "O=C(CCCN1C(=O)/C(=C\\c2cccs2)SC1=S)Nc1cccnc1", "activity change, negative = cytotoxic": "inactive: -2.38%"}
{"smiles": "O=C(CCC(=O)N1CCSc2ccccc21)NCCc1ccccc1", "activity change, negative = cytotoxic": "inactive: -2.71%"}
{"smiles": "CCN(CC)c1ccc(/C=C/c2ccc3ccccc3n2)cc1", "Potency": "active: 2.31 µM"}
{"smiles": "CCc1ccc(N2C(=O)C(Cl)=C(N3CCOCC3)C2=O)cc1", "activity change, negative = cytotoxic": "inactive: 1.64%"}
{"smiles": "O=C(c1ccc2c(c1)OCCO2)C1CCN(C(=O)c2ccc(F)cc2)CC1", "Potency": "inconclusive: 13 µM [cytotoxic, partial curve, poor fit]"}
{"smiles": "CN(C)c1ccc(-n2cccc2/C=C/[N+](=O)[O-])cc1", "Potency": "inconclusive: 18.4 µM [cytotoxic, single point]"}
{"smiles": "COc1ccc(NC(=O)CSCC(=O)N(C)CCOc2ccc(Cl)cc2)cc1", "Potency": "inconclusive: 14.6 µM [cytotoxic, single point]"}
{"smiles": "O=C(Nc1ccc2ncccc2c1)c1ccccc1Br", "Potency": "inconclusive: 29.1 µM [cytotoxic, single point]"}
{"smiles": "O=C(CNCCC1=CCCCC1)Nc1ccccc1N1CCCCCC1", "Potency": "inconclusive: 20.6 µM [cytotoxic, single point]"}
{"smiles": "Cc1ccc2c(c1)C1CN(C)CCC1N2S(=O)(=O)c1ccc(Oc2ccc([N+](=O)[O-])cc2)cc1", "note": "(stereo unspecified)", "Potency": "active: 18.4 µM"}
{"smiles": "COc1cccc(NC(=O)CN(C)C(=O)CNC(=O)c2ccc3ccccc3c2)c1", "Potency": "inconclusive: 18.4 µM [cytotoxic, single point]"}
{"smiles": "CCOc1ccccc1-c1nc2c([nH]1)c(=O)n(C)c(=O)n2C", "Potency": "inconclusive: 7.31 µM [cytotoxic, partial curve]"}
{"smiles": "COC(CN(C(=O)CCl)C(C(=O)NC1CCCCC1)c1ccccc1C)OC", "note": "(stereo unspecified)", "Potency": "inconclusive: 25.9 µM [cytotoxic, single point]"}
{"smiles": "COc1ccccc1N1CCN(Cc2nc(-c3cc(OC)c(OC)c(OC)c3)no2)CC1", "activity change, negative = cytotoxic": "inactive: -19.9%"}
{"smiles": "CC1Cc2ccccc2N1C(=O)CSc1nnc(CNc2ccccc2)o1", "note": "(stereo unspecified)", "Potency": "inconclusive: 10.3 µM [rising, partial curve]"}
{"smiles": "CCOc1ccccc1CNS(=O)(=O)c1ccc2c(c1)oc(=O)n2C", "Potency": "inconclusive: 0.0073 µM [rising, full curve]"}
{"smiles": "COc1ccc(C(=O)NNC(=O)c2ccccn2)cc1", "Potency": "inconclusive: 18.4 µM [cytotoxic, partial curve, poor fit]"}
{"smiles": "CSC1=C(C#N)C(=O)NC(c2ccc(Cl)cc2)S1", "note": "(stereo unspecified)", "Potency": "inconclusive: 20.6 µM [cytotoxic, partial curve, poor fit]"}
{"smiles": "COc1ccc(-c2cccc(-c3cc(=O)oc4cc(OC)c(OC)c(OC)c34)c2)cc1", "Potency": "inconclusive: 16.4 µM [cytotoxic, partial curve, poor fit]"}
{"smiles": "Cc1cc(C)nc(SC2c3cccc4cccc(c34)C2NS(=O)(=O)c2ccccc2)n1", "note": "(stereo unspecified)", "Potency": "inconclusive: 20.6 µM [cytotoxic, single point]"}
{"smiles": "COc1ccc(C2=Nn3c(nnc3-c3ccccc3F)SC2)cc1OCC1CC1", "Potency": "active: 13 µM"}
{"smiles": "O=C(Cn1ncc2c3ccccc3n(Cc3ccccc3)c2c1=O)NCCCN1CCCCC1", "activity change, negative = cytotoxic": "inactive: -6.94%"}
{"smiles": "CCCn1c(N)c(C(=O)CSc2nc3ccccc3c(=O)n2-c2ccc(OC)cc2)c(=O)[nH]c1=O", "Potency": "inconclusive: 2.91 µM [rising, full curve]"}
{"smiles": "O=C(O)c1ccc2c(c1)N(Cc1ccc(F)cc1)C(=O)c1ccccc1S2=O", "note": "(stereo unspecified)", "Potency": "inconclusive: 20.6 µM [cytotoxic, partial curve, poor fit]"}
{"smiles": "Cc1ccc(SC(CC(=O)c2ccc(F)cc2)C(=O)O)cc1", "note": "(stereo unspecified)", "activity change, negative = cytotoxic": "inactive: 1.56%"}
{"smiles": "CCCCN(C)C(=O)C1CCC(Cn2c(=O)[nH]c3ccsc3c2=O)CC1", "note": "(stereo unspecified)", "activity change, negative = cytotoxic": "inactive: 0.0339%"}
{"smiles": "O=S(=O)(N=C1C=CC(=NS(=O)(=O)c2ccccc2)c2ccccc21)c1ccccc1", "Potency": "inconclusive: 32.6 µM [cytotoxic, single point]"}
